# Measured values: the supplement of paper PMC3047530
# Where “and” joins values, the source holds several entries; their conditions need not be identical. Identical values can stand only once. The list shows a part of the results. Repeats are few or missing, and single values can be far off.
# Tested on: Geomyces destructans
# Test: growth inhibition relative to DMSO control; higher = stronger growth inhibition
# Details: 10 µM; 15 °C; incubation time 10 days
row,SMILES,growth inhibition
1,O=C(O)c1cc(O)c2c(c1)[C@H]([C@H]1c3cc(C(=O)O)cc(O)c3C(=O)c3c(O[C@@H]4O[C@H](CO)[C@@H](O)[C@H](O)[C@H]4O)cccc31)c1cccc(O[C@@H]3O[C@H](CO)[C@@H](O)[C@H](O)[C@H]3O)c1C2=O,1.23%
2,O=C(/C=C/c1ccccc1)c1c(O)cc(O)cc1O,-16%
3,COc1cc(O)c(C(C)=O)c(OC)c1,-4.92%
4,CCCCC(=O)O[C@]1(C(=O)CO)[C@@H](C)C[C@H]2[C@@H]3CCC4=CC(=O)C=C[C@]4(C)[C@@]3(F)[C@@H](O)C[C@@]21C,-31.1%
5,COc1cc(C(=O)N2CCOCC2)cc(OC)c1OC,-29.4%
6,CC(=O)OCC(=O)[C@@]1(O)CC[C@H]2[C@@H]3CCC4=CC(=O)CC[C@]4(C)[C@H]3C(=O)C[C@@]21C,-1.99%
7,COc1cc2cccc(OC)c(=O)c2c(OC)c1OC,-22%
8,CC1CCC(NC(=O)N(CCCl)N=O)CC1 (centres undefined),-4.92%
9,CC1=C2C(O)C(=O)OC3CC4C(C)(C)C(=O)C=C[C@]4(C)C(CC1)[C@]23C (some centres undefined),-16.6%
10,Oc1ccc(O)cc1,-26.9%
11,COC1=C(O)C(=O)c2c(cc3oc(C(C)=O)c(O)c3c2O)C1=O,-10.3%
12,CC(C)(O)CC[C@@H](O)[C@](C)(O)[C@H]1CC[C@@]2(O)C3=CC(=O)[C@@H]4C[C@@H](O)[C@@H](O)C[C@]4(C)[C@H]3CC[C@]12C,-2.52%
13,Nc1ccc(S(=O)(=O)Nc2ccc(Cl)nn2)cc1,-4.92%
14,Cc1ccc(/C(=C\CN2CCCC2)c2ccccn2)cc1,-28.9%
15,CC(=O)O[C@H]1CC[C@]2(C)[C@H]3CC[C@@]4(C)[C@H](c5ccoc5)OC(=O)[C@H]5O[C@]54[C@]3(C)[C@H](OC(C)=O)C[C@H]2C1(C)C [3beta-ACETOXYDEOXODIHYDROGEDUNIN],1.25%
16,Cc1ccc2c(c1)CC[C@H]1CC(=O)CC[C@]21C,-12.9%
17,COc1ccc(C2CC(=O)c3ccc(OC)cc3O2)cc1 (centres undefined),-4.4%
18,CNCCC=C1c2ccccc2CCc2ccccc21,-13.8%
19,Cc1c(O)cc(O)c2c(=O)c(-c3ccc(O)cc3)coc12,-6.58%
20,C[C@]12CC[C@@H](O)C[C@H]1CC[C@@H]1[C@@H]2C(=O)C[C@@]2(C)[C@H]1CC[C@]2(O)C(=O)CO,-1.69%
21,CC(=O)Nc1ccc(S(=O)(=O)Nc2ccc([N+](=O)[O-])cc2)cc1,-29.7%
22,CCc1cc(C(N)=S)ccn1,-5.08%
23,NC(=O)c1ncn([C@@H]2O[C@H](CO)[C@@H](O)[C@H]2O)c1O,-29.2%

row,SMILES,growth inhibition
1,Cc1ccc(C(C)C)cc2c(C)ccc1-2,-1.9%
2,CC[C@]12CCCN3CCc4c(n(c5ccccc45)C(=O)C1)[C@@H]32,-21.6%
3,COc1cc(OC)c2c3c1C(=O)c1c(OC)cc(C)c4c(OC)cc(c-3c14)C(C)(C)C2=O,-10.4%
4,Cc1occc(=O)c1/C=C/O,-12.5%
5,CCn1cc(C(=O)O)c(=O)c2cc(F)c(N3CCNC(C)C3)c(F)c21 (centres undefined),-2.53%
6,CS(=O)(=O)Nc1ccc([N+](=O)[O-])cc1Oc1ccccc1,-7.87%
7,CCOC(=O)CCC(=O)O[C@H]1[C@H](O[C@@H]2[C@@H](C)[C@H](O[C@H]3C[C@@](C)(OC)[C@@H](O)[C@H](C)O3)[C@@H](C)C(=O)O[C@H](CC)[C@@](C)(O)[C@H](O)[C@@H](C)C(=O)[C@H](C)C[C@@]2(C)O)O[C@H](C)C[C@@H]1N(C)C,2.22%
8,C[C@]12C=CC(=O)C=C1CC[C@@H]1[C@@H]2C(=O)C[C@@]2(C)[C@H]1CC[C@]2(O)C(=O)CO,-23.5%
9,CC1(C)[C@@H](O[C@H]2O[C@H](C(=O)O)[C@@H](O)[C@H](O)[C@H]2O[C@@H]2O[C@H](C(=O)O)[C@@H](O)[C@H](O)[C@H]2O)CC[C@]2(C)[C@H]3C(=O)C=C4[C@@H]5C[C@@](C)(C(=O)O)CC[C@]5(C)CC[C@@]4(C)[C@]3(C)CC[C@@H]12,11.9%
10,COC(=O)C[C@H]1C(C)(C)[C@@H](OC(C)=O)[C@@H]2CC3=C4CC(=O)O[C@@H](c5ccoc5)[C@]4(C)CC[C@@H]3[C@@]1(C)C2=O,-17.7%
11,CC(=O)N1CCN(c2ccc(OCC3COC(Cn4ccnc4)(c4ccc(Cl)cc4Cl)O3)cc2)CC1 (centres undefined),5.13%
12,CC1(C)C2CC(=O)O[C@@]3(C)C4=CC(=O)O[C@@H](c5ccoc5)[C@]4(C)CCC3[C@@]2(C)C=C[C@H]1O (some centres undefined),-11.2%
13,O=C(O)P(=O)(O)O,-6.72%
14,CCN(CC)CCCC(C)Nc1c2ccc(Cl)cc2nc2ccc(OC)cc12 (centres undefined),-9.19%
15,COc1cc2c(cc1OC)-c1cc3ccc(OC)c(OC)c3c[n+]1CC2,-2.1% and -9.71%
16,COC(=O)[C@H]1[C@H]2C[C@@H]3c4[nH]c5cc(OC)ccc5c4CCN3C[C@H]2C[C@@H](OC(=O)c2cc(OC)c(OC)c(OC)c2)[C@@H]1OC,-9.53%
17,CNC(=C[N+](=O)[O-])NCCSCc1ccc(CN(C)C)o1,-5.9%
18,O=c1c(-c2ccc(O)cc2)coc2cc(O)cc(O)c12,-1.49%
19,O=C1C=C2CC3(O)COc4cc(O)ccc4C3=C2C=C1O (centres undefined),-10.8%
20,N[C@H](Cc1ccccc1)C(=O)O,-5.73%
21,CNC[C@H](O)c1cccc(O)c1,-9.69%
22,"C[C@]12CC[C@@H](O)C[C@H]1CCc1ccccc12 [3alpha-HYDROXY-4,4-BISNOR-8,11,13-PODOCARPATRIENE]",-6.49%
23,O=C(O[C@@H]1Cc2c(O)cc(O)cc2O[C@@H]1c1cc(O)c(O)c(O)c1)c1cc(O)c(O)c(O)c1,1.18%

row,SMILES,growth inhibition
1,CC[C@H](CC[C@@H](C)[C@H]1CC[C@H]2[C@@H]3CC=C4C[C@@H](OC(C)=O)CC[C@]4(C)[C@H]3CC[C@]12C)C(C)C,-2.22%
2,COc1cc(C(=O)O)c2c(c1C)OC(=O)c1c(C)cc(O)c(C=O)c1O2,-8.01%
3,NS(=O)(=O)c1cc2c(cc1Cl)N=C(CSCc1ccccc1)NS2(=O)=O,-1.53%
4,CC(=O)OC/C=C(C)/C=C/C=C(C)/C=C/C1=C(C)CCCC1(C)C,-5.74%
5,O=C1C(CC[S+]([O-])c2ccccc2)C(=O)N(c2ccccc2)N1c1ccccc1 (centres undefined),-19.4%
6,COC(=O)c1c(C)cc(OC(=O)c2c(C)c(Cl)c(O)c(C=O)c2O)c(C)c1O,-1.95%
7,C[C@@H]1O[C@@H](Oc2c(-c3ccc(O)c(O)c3)oc3cc(O)cc(O)c3c2=O)[C@H](O)[C@H](O)[C@H]1O,-5.62%
8,O=C(O)Cc1ccccc1Nc1c(Cl)cccc1Cl,-1.05%
9,O=c1cc(-c2cc(O)c(O)c(O)c2)oc2cc(O)cc(O)c12,7.77%
10,O=c1[nH]cc(F)c(=O)[nH]1,78.6%
11,O=C(O)c1cc(=O)c2cccc(O)c2[nH]1,-0.444%
12,C[C@]12C=CC(=O)C=C1CC[C@@H]1[C@@H]2[C@@H](O)C[C@@]2(C)[C@H]1CC[C@]2(O)C(=O)CO,-19.2%
13,CS(=O)(=O)c1ccc([C@@H](O)[C@@H](CO)NC(=O)C(Cl)Cl)cc1,-24.2%
14,N=c1ccn2c(n1)O[C@H]1[C@H](O)[C@@H](CO)O[C@H]12,-6.24%
15,CC(=O)Oc1c(C)cccc1C(=O)O,-0.686%
16,Cc1cc(C(C)(C)CC(C)(C)C)ccc1OCCOCC[N+](C)(C)Cc1ccccc1,91.3%
17,Cc1cc(NC(=O)C2=C(O)c3ccccc3S(=O)(=O)N2C)no1,-12.5%
18,CN(C)CCCN1c2ccccc2CCc2ccc(Cl)cc21,-4.78%
19,Cc1cc(OC(=O)c2c(C)cc(O)cc2O)cc(O)c1C(=O)O,-7.36%
20,COC(=O)C1=C(C)NC(C)=C(C(=O)OC)C1c1ccccc1[N+](=O)[O-],-13.9%
21,C#C[C@]1(O)CC[C@H]2[C@@H]3CCC4=CC(=O)CC[C@@H]4[C@H]3CC[C@@]21C,-8.01%
22,CO[C@@]1(NC(=O)C(C(=O)O)c2ccc(O)cc2)C(=O)N2C(C(=O)O)=C(CSc3nnnn3C)CO[C@@H]21 (some centres undefined),-11.7%
23,O=c1c(O)c(-c2ccccc2)oc2ccccc12,-9.14%

row,SMILES,growth inhibition
1,Oc1cc(O)cc(/C=C/c2ccccc2)c1,15.7%
2,C[C@@H]1CC[C@@]2(OC1)O[C@H]1C[C@H]3[C@@H]4CC[C@H]5C[C@@H](O)CC[C@]5(C)[C@H]4CC[C@]3(C)[C@H]1[C@@H]2C,-14.1%
3,Nc1ccc(S(=O)(=O)Nc2ncccn2)cc1,-15.5%
4,COC(=O)c1c(Cl)c(Cl)c(C(=O)OC)c(Cl)c1Cl,-9.27%
5,C[C@H]1NC(=O)NC1=O,1.3%
6,Cc1ccnc(NS(=O)(=O)c2ccc(N)cc2)n1,-11.5%
7,CC1(C)C(=O)CC[C@]2(C)C1CC[C@@]13CC(CC[C@H]12)[C@](O)(CO)C3 (some centres undefined),-21.3%
8,COc1ccc(C[C@H](N)C(=O)N[C@H]2[C@@H](O)[C@H](n3cnc4c(N(C)C)ncnc43)O[C@@H]2CO)cc1,-7.34%
9,O=C(O)CN(CC(=O)O)Cc1cc2c(cc1O)Oc1cc(O)c(CN(CC(=O)O)CC(=O)O)cc1C21OC(=O)c2ccccc21,-32.9%
10,Nc1ccc(S(=O)(=O)Nc2cnc3ccccc3n2)cc1,-3.66%
11,CC(=O)Oc1ccccc1C(=O)Oc1ccccc1C(=O)O,-13.6%
12,COc1c(C(C)C)oc2cc3oc(=O)ccc3cc12,-1.28%
13,CCCCNc1cc(C(=O)O)cc(S(N)(=O)=O)c1Oc1ccccc1,-4.1%
14,CC(=O)O[C@@H]1CC2C(C)(C)C=CC(=O)[C@]2(C)C2CC[C@@]3(C)[C@H](c4ccoc4)OC(=O)C4OC43[C@@]21C (some centres undefined),-10.4%
15,CC[C@H](C)C(=O)O[C@H]1C[C@@H](C)C=C2C=C[C@H](C)[C@H](CC[C@@H]3C[C@@H](O)CC(=O)O3)[C@H]21,-9.53%
16,CN=C(N)NCCCC(N)C(=O)O (centres undefined),-39.2%
17,CCN(CC)CCOC(=O)c1ccc(N)cc1,-20.5%
18,O=c1cc(-c2ccccc2)oc2cc(O)c(O)c(O)c12,-13.2%
19,COc1cc(OC)c2c(c1)O[C@H](c1cc(OC)c(OC)c(OC)c1)[C@H](OC(=O)c1cc(OC)c(OC)c(OC)c1)C2,-2.34%
20,COc1cccc(-c2cc(=O)c3cc(OC)ccc3o2)c1,-6.51%
